# These are yes or no findings as the source states them, for the method shown. Some entries that bind do so weakly or less than the wild type. Sequences can lack the tags named with a protein.
# Sequences of proteins named here, by UniProt entry; tags and fusion partners are left off. Residues count along the entry.
# UniProt P26718, residues 73-216: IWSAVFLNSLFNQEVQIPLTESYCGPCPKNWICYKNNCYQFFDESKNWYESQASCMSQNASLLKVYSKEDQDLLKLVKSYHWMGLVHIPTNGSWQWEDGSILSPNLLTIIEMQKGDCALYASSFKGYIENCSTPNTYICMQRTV
# B1: MICA*001 extracellular domain recombinant protein (full extracellular domain with a BirA or a Poly-His Tag) (ligand, not shown: small tags and cut ends)
# chain: EPHSLRYNLTVLSWDGSVQSGFLTEVHLDGQPFLRCDRQKCRAKPQGQWAEDVLGNKTWDRETRDLTGNGKDLRMTLAHIKDQKEGLHSLQEIRVCEIHEDNSTRSSQHFYYDGELFLSQNLETKEWTMPQSSRAQTLAMNVRNFLKEDAMKTKTHYHAMHADCLQELRRYLKSGVVLRRTVPPMVNVTRSEASEGNITVTCRASGFYPWNITLSWRQDGVSLSHDTQQWGDVLPDGNGTYQTWVATRICQGEEQRFTCYMEHSGNHSTHPVPS
# Molecular target: NKG2D-Fc (human) (UniProt P26718)
# Experiment: SPR, 'Binding of MICA*001-BirA to NKG2D-Fc' as titled on the sheet; concentrations and the immobilised partner are not given
binder,measurement,value
B1,binding,binds

# — patent US20150191542A1
